Source: article PMC8929021

Amino acid sequences for entries named in this document (tags omitted).
UniProt P27694: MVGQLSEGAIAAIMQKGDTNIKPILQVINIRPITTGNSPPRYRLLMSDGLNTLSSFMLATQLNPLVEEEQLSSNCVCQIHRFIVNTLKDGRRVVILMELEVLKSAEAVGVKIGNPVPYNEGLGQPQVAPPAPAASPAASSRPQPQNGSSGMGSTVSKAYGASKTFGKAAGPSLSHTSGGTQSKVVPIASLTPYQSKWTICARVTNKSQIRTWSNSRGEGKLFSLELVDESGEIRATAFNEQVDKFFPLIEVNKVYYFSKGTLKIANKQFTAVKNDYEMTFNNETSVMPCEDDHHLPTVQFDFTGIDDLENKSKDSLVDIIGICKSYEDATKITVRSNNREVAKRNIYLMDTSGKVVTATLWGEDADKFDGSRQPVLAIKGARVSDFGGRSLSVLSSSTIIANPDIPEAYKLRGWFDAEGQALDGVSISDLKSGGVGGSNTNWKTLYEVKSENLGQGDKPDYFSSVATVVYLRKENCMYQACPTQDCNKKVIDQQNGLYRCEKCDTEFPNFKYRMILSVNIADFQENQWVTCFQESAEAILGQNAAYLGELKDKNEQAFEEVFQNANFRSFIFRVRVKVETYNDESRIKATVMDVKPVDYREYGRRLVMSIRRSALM
UniProt P46100: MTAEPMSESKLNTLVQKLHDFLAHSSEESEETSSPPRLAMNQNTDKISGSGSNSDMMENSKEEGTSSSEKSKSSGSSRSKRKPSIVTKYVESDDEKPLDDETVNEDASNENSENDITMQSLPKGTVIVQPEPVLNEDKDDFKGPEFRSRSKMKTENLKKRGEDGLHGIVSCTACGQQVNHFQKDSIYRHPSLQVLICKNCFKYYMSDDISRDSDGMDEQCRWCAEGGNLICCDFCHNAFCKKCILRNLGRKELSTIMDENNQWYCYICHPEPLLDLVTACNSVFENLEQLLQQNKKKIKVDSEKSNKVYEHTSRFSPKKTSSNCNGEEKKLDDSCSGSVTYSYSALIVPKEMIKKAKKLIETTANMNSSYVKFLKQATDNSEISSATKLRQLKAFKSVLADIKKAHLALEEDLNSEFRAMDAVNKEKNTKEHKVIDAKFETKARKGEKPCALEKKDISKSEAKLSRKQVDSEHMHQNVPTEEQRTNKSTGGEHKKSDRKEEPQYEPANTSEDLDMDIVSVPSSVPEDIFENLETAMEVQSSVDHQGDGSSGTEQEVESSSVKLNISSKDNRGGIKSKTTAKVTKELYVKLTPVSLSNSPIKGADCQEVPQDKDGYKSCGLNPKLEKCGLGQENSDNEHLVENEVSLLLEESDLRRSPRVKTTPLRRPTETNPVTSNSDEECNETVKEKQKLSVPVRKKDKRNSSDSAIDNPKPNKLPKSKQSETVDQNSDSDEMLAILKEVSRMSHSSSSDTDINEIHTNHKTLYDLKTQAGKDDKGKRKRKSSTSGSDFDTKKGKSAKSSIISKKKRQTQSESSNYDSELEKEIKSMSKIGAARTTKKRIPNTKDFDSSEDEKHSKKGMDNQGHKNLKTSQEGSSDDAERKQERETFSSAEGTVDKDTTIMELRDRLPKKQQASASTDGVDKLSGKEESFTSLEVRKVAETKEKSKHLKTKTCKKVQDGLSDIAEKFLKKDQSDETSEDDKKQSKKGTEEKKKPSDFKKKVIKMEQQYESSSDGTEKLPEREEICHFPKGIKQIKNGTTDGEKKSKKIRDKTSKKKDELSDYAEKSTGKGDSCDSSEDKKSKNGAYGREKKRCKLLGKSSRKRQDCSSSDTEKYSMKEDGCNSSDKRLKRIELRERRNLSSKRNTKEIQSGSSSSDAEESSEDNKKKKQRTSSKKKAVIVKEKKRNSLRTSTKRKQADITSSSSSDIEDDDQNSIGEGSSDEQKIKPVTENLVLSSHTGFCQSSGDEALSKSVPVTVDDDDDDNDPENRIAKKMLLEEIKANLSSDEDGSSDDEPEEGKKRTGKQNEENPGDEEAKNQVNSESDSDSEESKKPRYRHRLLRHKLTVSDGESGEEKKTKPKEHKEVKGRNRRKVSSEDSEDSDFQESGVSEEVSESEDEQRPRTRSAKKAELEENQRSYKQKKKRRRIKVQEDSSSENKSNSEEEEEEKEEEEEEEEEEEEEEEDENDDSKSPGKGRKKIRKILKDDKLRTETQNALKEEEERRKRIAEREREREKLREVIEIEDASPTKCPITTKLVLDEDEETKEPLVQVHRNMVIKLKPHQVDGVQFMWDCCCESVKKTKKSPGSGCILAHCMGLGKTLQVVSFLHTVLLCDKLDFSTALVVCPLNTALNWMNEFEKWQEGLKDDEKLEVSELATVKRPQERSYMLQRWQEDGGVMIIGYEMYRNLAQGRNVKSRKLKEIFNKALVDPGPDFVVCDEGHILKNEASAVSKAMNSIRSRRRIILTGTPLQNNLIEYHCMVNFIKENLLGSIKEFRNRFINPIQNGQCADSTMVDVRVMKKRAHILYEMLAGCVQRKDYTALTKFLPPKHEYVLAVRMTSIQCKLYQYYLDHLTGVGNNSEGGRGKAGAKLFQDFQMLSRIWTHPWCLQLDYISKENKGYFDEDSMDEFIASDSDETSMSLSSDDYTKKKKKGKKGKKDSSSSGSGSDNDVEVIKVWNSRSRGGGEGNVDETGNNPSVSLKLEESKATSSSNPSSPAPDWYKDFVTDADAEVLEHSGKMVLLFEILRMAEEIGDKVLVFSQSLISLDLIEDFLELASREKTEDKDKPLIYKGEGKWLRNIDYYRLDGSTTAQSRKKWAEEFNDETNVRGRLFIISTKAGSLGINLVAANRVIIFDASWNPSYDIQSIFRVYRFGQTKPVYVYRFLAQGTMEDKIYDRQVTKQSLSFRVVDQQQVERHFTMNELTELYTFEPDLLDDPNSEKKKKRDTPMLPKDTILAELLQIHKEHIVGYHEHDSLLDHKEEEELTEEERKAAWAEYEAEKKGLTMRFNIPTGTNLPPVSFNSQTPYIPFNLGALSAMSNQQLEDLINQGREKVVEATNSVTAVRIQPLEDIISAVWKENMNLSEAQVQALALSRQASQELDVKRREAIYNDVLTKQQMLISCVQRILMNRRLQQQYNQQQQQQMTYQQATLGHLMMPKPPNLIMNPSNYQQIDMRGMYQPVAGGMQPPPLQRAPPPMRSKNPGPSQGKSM
UniProt Q13123: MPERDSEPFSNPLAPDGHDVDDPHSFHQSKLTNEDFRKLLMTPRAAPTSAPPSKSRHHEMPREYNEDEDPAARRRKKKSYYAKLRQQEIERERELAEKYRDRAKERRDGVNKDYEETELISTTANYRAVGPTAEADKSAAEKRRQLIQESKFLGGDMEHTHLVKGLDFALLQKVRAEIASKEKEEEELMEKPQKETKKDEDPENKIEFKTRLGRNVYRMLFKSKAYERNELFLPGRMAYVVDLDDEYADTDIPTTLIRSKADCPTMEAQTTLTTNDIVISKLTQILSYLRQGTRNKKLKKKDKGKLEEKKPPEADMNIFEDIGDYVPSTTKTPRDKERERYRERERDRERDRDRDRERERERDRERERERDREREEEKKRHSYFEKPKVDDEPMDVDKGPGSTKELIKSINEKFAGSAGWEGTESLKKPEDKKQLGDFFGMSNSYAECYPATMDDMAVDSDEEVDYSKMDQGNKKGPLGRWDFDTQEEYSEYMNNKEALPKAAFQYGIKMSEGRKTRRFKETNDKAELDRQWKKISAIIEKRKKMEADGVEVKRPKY
UniProt P09104: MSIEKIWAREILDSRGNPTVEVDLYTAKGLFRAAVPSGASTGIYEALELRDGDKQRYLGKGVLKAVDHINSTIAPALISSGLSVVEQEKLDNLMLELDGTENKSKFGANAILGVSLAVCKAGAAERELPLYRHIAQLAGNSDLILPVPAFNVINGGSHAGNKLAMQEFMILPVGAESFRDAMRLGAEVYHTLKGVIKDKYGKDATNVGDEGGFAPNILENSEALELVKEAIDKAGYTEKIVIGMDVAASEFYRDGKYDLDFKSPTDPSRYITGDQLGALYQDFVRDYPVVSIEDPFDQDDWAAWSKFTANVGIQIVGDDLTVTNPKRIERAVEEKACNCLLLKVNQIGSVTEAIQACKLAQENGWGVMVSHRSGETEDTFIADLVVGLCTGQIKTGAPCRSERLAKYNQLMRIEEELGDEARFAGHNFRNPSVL
UniProt P12004: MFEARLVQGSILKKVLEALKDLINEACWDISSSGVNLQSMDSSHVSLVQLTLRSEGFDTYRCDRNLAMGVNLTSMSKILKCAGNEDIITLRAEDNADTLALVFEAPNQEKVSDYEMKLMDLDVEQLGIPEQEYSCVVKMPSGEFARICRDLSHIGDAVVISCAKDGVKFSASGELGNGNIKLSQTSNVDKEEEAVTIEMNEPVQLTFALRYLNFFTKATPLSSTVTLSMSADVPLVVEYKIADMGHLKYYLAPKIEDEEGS
UniProt Q02880: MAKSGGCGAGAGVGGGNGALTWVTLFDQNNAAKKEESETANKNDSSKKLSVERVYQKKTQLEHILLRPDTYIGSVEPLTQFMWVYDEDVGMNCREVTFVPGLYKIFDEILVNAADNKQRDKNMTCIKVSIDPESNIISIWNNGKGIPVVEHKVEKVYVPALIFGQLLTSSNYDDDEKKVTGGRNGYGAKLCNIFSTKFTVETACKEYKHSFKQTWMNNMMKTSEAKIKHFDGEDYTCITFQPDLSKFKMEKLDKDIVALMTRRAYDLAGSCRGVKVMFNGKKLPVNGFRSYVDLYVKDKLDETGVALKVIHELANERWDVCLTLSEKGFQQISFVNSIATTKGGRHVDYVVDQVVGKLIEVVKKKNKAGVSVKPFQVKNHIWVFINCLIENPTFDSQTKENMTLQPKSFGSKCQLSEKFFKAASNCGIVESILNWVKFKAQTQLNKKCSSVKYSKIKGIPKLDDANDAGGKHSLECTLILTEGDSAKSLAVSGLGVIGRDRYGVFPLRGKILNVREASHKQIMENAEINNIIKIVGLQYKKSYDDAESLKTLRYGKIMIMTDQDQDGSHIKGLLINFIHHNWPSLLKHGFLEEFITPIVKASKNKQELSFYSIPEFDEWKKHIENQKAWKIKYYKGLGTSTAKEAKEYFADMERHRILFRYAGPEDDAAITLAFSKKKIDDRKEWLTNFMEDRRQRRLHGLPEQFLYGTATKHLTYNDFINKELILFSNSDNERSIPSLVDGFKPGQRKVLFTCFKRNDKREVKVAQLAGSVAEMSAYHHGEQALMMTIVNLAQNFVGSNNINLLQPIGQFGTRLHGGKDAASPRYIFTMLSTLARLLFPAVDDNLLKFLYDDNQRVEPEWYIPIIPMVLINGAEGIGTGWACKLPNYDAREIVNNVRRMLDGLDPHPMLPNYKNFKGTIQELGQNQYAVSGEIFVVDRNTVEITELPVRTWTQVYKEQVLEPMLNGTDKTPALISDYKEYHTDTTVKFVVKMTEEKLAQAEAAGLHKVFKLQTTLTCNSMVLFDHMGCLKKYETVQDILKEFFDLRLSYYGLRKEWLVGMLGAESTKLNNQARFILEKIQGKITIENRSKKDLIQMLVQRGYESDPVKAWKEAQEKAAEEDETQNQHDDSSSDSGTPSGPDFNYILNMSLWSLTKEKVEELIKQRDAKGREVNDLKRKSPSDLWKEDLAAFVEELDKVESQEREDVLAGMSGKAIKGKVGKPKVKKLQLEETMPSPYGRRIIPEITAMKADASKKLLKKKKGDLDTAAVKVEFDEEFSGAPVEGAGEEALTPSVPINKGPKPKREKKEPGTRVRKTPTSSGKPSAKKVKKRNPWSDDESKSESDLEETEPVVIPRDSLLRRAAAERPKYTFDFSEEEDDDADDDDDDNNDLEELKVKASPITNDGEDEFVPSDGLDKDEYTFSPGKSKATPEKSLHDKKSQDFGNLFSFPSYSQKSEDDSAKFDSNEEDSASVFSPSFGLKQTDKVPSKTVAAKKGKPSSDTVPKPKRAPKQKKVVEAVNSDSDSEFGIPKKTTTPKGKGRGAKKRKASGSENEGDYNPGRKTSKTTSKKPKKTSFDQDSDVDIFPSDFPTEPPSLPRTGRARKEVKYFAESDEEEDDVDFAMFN
UniProt P55081: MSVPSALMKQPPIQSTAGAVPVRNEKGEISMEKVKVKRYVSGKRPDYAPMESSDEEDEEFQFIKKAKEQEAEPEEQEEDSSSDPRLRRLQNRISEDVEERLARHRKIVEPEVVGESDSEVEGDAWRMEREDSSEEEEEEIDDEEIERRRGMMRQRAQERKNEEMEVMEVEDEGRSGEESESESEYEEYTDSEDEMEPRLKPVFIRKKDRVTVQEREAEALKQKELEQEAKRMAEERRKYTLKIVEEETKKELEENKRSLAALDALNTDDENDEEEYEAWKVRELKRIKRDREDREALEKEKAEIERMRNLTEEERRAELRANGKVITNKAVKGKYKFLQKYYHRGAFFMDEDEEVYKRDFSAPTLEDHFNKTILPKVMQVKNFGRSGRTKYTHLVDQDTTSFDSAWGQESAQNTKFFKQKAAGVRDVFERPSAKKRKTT

T1: KIN (Kin17) fused to BirA* (human) (UniProt O60870)
T1 sequence: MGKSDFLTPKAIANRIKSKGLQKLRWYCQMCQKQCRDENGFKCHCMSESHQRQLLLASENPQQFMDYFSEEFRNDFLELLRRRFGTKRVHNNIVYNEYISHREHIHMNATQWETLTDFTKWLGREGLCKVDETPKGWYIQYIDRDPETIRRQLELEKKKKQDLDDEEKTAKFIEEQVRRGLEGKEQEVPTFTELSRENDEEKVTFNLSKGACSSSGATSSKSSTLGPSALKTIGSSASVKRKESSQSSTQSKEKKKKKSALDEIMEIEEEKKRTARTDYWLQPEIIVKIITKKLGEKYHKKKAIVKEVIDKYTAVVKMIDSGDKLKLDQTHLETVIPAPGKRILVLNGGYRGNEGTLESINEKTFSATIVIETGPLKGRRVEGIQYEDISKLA

B1: BUD13 (protein, UniProt Q9BRD0 1-619)
chain: MAAAPPLSKAEYLKRYLSGADAGVDRGSESGRKRRKKRPKPGGAGGKGMRIVDDDVSWTAISTTKLEKEEEEDDGDLPVVAEFVDERPEEVKQMEAFRSSAKWKLLGGHNEDLPSNRHFRHDTPDSSPRRVRHGTPDPSPRKDRHDTPDPSPRRARHDTPDPSPLRGARHDSDTSPPRRIRHDSSDTSPPRRARHDSPDPSPPRRPQHNSSGASPRRVRHDSPDPSPPRRARHGSSDISSPRRVHNNSPDTSRRTLGSSDTQQLRRARHDSPDLAPNVTYSLPRTKSGKAPERASSKTSPHWKESGASHLSFPKNSKYEYDPDISPPRKKQAKSHFGDKKQLDSKGDCQKATDSDLSSPRHKQSPGHQDSDSDLSPPRNRPRHRSSDSDLSPPRRRQRTKSSDSDLSPPRRSQPPGKKAAHMYSGAKTGLVLTDIQREQQELKEQDQETMAFEAEFQYAETVFRDKSGRKRNLKLERLEQRRKAEKDSERDELYAQWGKGLAQSRQQQQNVEDAMKEMQKPLARYIDDEDLDRMLREQEREGDPMANFIKKNKAKENKNKKVRPRYSGPAPPPNRFNIWPGYRWDGVDRSNGFEQKRFARLASKKAVEELAYKWSVEDM
B2: CEBZ (protein, UniProt Q03701 1-1054)
chain: MAAVKEPLEFHAKRPWRPEEAVEDPDEEDEDNTSEAENGFSLEEVLRLGGTKQDYLMLATLDENEEVIDGGKKGAIDDLQQGELEAFIQNLNLAKYTKASLVEEDEPAEKENSSKKEVKIPKINNKNTAESQRTSVNKVKNKNRPEPHSDENGSTTPKVKKDKQNIFEFFERQTLLLRPGGKWYDLEYSNEYSLKPQPQDVVSKYKTLAQKLYQHEINLFKSKTNSQKGASSTWMKAIVSSGTLGDRMAAMILLIQDDAVHTLQFVETLVNLVKKKGSKQQCLMALDTFKELLITDLLPDNRKLRIFSQRPFDKLEQLSSGNKDSRDRRLILWYFEHQLKHLVAEFVQVLETLSHDTLVTTKTRALTVAHELLCNKPEEEKALLVQVVNKLGDPQNRIATKASHLLETLLCKHPNMKGVVSGEVERLLFRSNISSKAQYYAICFLNQMALSHEESELANKLITVYFCFFRTCVKKKDVESKMLSALLTGVNRAYPYSQTGDDKVREQIDTLFKVLHIVNFNTSVQALMLLFQVMNSQQTISDRYYTALYRKMLDPGLMTCSKQAMFLNLVYKSLKADIVLRRVKAFVKRLLQVTCQQMPPFICGALYLVSEILKAKPGLRSQLDDHPESDDEENFIDANDDEDMEKFTDADKETEIVKKLETEETVPETDVETKKPEVASWVHFDNLKGGKQLNKYDPFSRNPLFCGAENTSLWELKKLSVHFHPSVALFAKTILQGNYIQYSGDPLQDFTLMRFLDRFVYRNPKPHKGKENTDSVVMQPKRKHFIKDIRHLPVNSKEFLAKEESQIPVDEVFFHRYYKKVAVKEKQKRDADEESIEDVDDEEFEELIDTFEDDNCFSSGKDDMDFAGNVKKRTKGAKDNTLDEDSEGSDDELGNLDDDEVSLGSMDDEEFAEVDEDGGTFMDVLDDESESVPELEVHSKVSTKKSKRKGTDDFDFAGSFQGPRKKKRNLNDSSLFVSAEEFGHLLDENMGSKFDNIGMNAMANKDNASLKQLRWEAERDDWLHNRDAKSIIKKKKHFKKKRIKTTQKTKKQRK
B3: PRPF38A (protein, UniProt Q8NAV1 1-312)
chain: MANRTVKDAHSIHGTNPQYLVEKIIRTRIYESKYWKEECFGLTAELVVDKAMELRFVGGVYGGNIKPTPFLCLTLKMLQIQPEKDIIVEFIKNEDFKYVRMLGALYMRLTGTAIDCYKYLEPLYNDYRKIKSQNRNGEFELMHVDEFIDELLHSERVCDIILPRLQKRYVLEEAEQLEPRVSALEEDMDDVESSEEEEEEDEKLERVPSPDHRRRSYRDLDKPRRSPTLRYRRSRSRSPRRRSRSPKRRSPSPRRERHRSKSPRRHRSRSRDRRHRSRSKSPGHHRSHRHRSHSKSPERSKKSHKKSRRGNE
B4: RBMX2/Snu17 (protein, UniProt Q9Y388 1-322)
chain: MNPLTKVKLINELNEREVQLGVADKVSWHSEYKDSAWIFLGGLPYELTEGDIICVFSQYGEIVNINLVRDKKTGKSKGFCFLCYEDQRSTILAVDNFNGIKIKGRTIRVDHVSNYRAPKDSEEIDDVTRQLQEKGCGARTPSPSLSESSEDEKPTKKHKKDKKEKKKKKKEKEKADREVQAEQPSSSSPRRKTVKEKDDTGPKKHSSKNSERAQKSEPREGQKLPKSRTAYSGGAEDLERELKKEKPKHEHKSSSRREAREEKTRIRDRGRSSDAHSSWYNGRSEGRSYRSRSRSRDKSHRHKRARRSRERESSNPSDRWRH
B5: THRAP3 (protein, UniProt Q9Y2W1 1-955)
chain: MSKTNKSKSGSRSSRSRSASRSRSRSFSKSRSRSRSLSRSRKRRLSSRSRSRSYSPAHNRERNHPRVYQNRDFRGHNRGYRRPYYFRGRNRGFYPWGQYNRGGYGNYRSNWQNYRQAYSPRRGRSRSRSPKRRSPSPRSRSHSRNSDKSSSDRSRRSSSSRSSSNHSRVESSKRKSAKEKKSSSKDSRPSQAAGDNQGDEAKEQTFSGGTSQDTKASESSKPWPDATYGTGSASRASAVSELSPRERSPALKSPLQSVVVRRRSPRPSPVPKPSPPLSSTSQMGSTLPSGAGYQSGTHQGQFDHGSGSLSPSKKSPVGKSPPSTGSTYGSSQKEESAASGGAAYTKRYLEEQKTENGKDKEQKQTNTDKEKIKEKGSFSDTGLGDGKMKSDSFAPKTDSEKPFRGSQSPKRYKLRDDFEKKMADFHKEEMDDQDKDKAKGRKESEFDDEPKFMSKVIGANKNQEEEKSGKWEGLVYAPPGKEKQRKTEELEEESFPERSKKEDRGKRSEGGHRGFVPEKNFRVTAYKAVQEKSSSPPPRKTSESRDKLGAKGDFPTGKSSFSITREAQVNVRMDSFDEDLARPSGLLAQERKLCRDLVHSNKKEQEFRSIFQHIQSAQSQRSPSELFAQHIVTIVHHVKEHHFGSSGMTLHERFTKYLKRGTEQEAAKNKKSPEIHRRIDISPSTFRKHGLAHDEMKSPREPGYKAEGKYKDDPVDLRLDIERRKKHKERDLKRGKSRESVDSRDSSHSRERSAEKTEKTHKGSKKQKKHRRARDRSRSSSSSSQSSHSYKAEEYTEETEEREESTTGFDKSRLGTKDFVGPSERGGGRARGTFQFRARGRGWGRGNYSGNNNNNSNNDFQKRNREEEWDPEYTPKSKKYYLHDDREGEGSDKWVSRGRGRGAFPRGRGRFMFRKSSTSPKWAHDKFSGEEGEIEDDESGTENREEKDNIQPTTE
B6: methyltransferase METTL22 (enzyme, UniProt Q9BUU2 1-404)
chain: MVQLAPAAAMDEVTFRSDTVLSDVHLYTPNHRHLMVRLNSVGQPVFLSQFKLLWSQDSWTDSGAKGGSHRDVHTKEPPSAETGSTGSPPGSGHGNEGFSLQAGTDTTGQEVAEAQLDEDGDLDVVRRPRAASDSNPAGPLRDKVHPMILAQEEDDVLGEEAQGSPHDIIRIEHTMATPLEDVGKQVWRGALLLADYILFRQDLFRGCTALELGAGTGLASIIAATMARTVYCTDVGADLLSMCQRNIALNSHLAATGGGIVRVKELDWLKDDLCTDPKVPFSWSQEEISDLYDHTTILFAAEVFYDDDLTDAVFKTLSRLAHRLKNACTAILSVEKRLNFTLRHLDVTCEAYDHFRSCLHALEQLADGKLRFVVEPVEASFPQLLVYERLQQLELWKIIAEPVT

Target: T1, KIN (Kin17) fused to BirA* (human)
Test: proximity labelling; BioID-MS: BirA* fusion bait in stable Flp-In T-Rex 293 or HeLa cells, tetracycline 1 μg/mL and biotin 75 μM for 24 h; lysis in modified RIPA buffer, streptavidin-agarose beads 4 °C 3 h, on-bead trypsin digestion, LC-MS/MS; GFP-NLS as control, SAINTexpress FDR threshold 0.1; for KIN also in HeLa cells synchronised by double thymidine block (S, G2/M, G1) and 2 or 24 h after 10 Gy gamma irradiation

| binding | Molecule |
| --- | --- |
| no binding | DNA polymerase α (human (endogenous in Flp-In T-Rex HeLa)) |
| no binding | RPA1 (from UniProt P27694 1-616) |
| binds | ATRX (from UniProt P46100 1-2492) |
| binds | IK (from UniProt Q13123 1-557) |
| binds | NOC3L (from UniProt Q8WTT2 1-800) |
| binds | enolase ENO2 (from UniProt P09104 1-434) |
| no binding | PCNA (from UniProt P12004 1-261) |
| no binding | RPA2 (from UniProt P15927 1-270) |
| binds | PRPF4B |
| binds | topoisomerase TOP2B (from UniProt Q02880 1-1626) |
| binds | MFAP1 (from UniProt P55081 1-439) |
| binds | B1 |
| binds | B2 |
| binds | B3 |
| binds | B4 |
| binds | B5 |
| binds | B6 |

These are yes or no findings as the source states them, for the method shown. In cells and extracts the contact can be indirect. Here binding means that the protein was enriched with, or labelled near, the bait; the list need not be complete. A no says only that the protein was not detected with the bait. Where a sequence is shown, tags or fusion partners need not be part of it.
